Results as given in patent US12049583B2, “Compound, composition for anisotropic dye films including the compound, anisotropic dye film, and optical element” (Mitsubishi Chemical Corporation, priority 2020, dated 2024).

Experiment: Dichroic ratio of anisotropic dye film (polarized light transmittance, D=Az/Ay)
Settings: anisotropic dye film of the dye in polymerizable liquid crystal compound I-1, sandwich cell gap 8.0 μm, 40 °C, at wavelength of local maximum dichroic ratio in 350 to 800 nm
Protocol: The transmittance of light polarized in the direction of the absorption axis/polarizing axis through the anisotropic dye film prepared was measured using a spectrophotometer (Product name: “RETS-100” produced by Otsuka Electronics Co., Ltd.) equipped with a Glan-Thompson polarizer.
Linearly polarized light was incident on the anisotropic dye film as measurement light. The transmittance of light polarized in the direction of absorption axis through the anisotropic dye film and the transmittance of light polarized in the direction of polarizing axis through the anisotropic dye film were measured. A dichroic ratio (D) was calculated using the following formula. D=Az/Ay • (in the above formula, • Ay=−log(Ty); • Az=−log(Tz); • where Tz represents the transmittance of light polarized in the direction of absorption axis through the anisotropic dye film; and • Ty represents the transmittance of light polarized in the direction of polarizing axis through the anisotropic dye film)
Specifically, into a sandwich cell including a glass substrate and a polyimide alignment film (LX1400, produced by HD MicroSystems, Ltd.) disposed thereon (cell gap: 8.0 μm, 10.0 μm, prepared by subjecting a polyimide film to a rubbing treatment with a cloth), the composition for anisotropic dye films was injected in an isotropic phase. Subsequently, cooling was performed to 80° C. at 5° C./min. Hereby, an anisotropic dye film was prepared. Then, while the temperature was reduced to 0° C. at 5° C./min, the dichroic ratio was measured at predetermined temperatures. The dichroic ratio at the temperature and wavelength at which the maximum dichroic ratio was measured was determined as the dichroic ratio of the anisotropic dye film. In addition, at the above temperature, the dichroic ratio at the wavelength at which the absorbance of the anisotropic dye film in the quadrature direction (absorption axis direction) was a local maximum (the dichroic ratio at the wavelength at which the absorbance of the film was a local maximum) was also measured.

SMILES | Dichroic ratio at the above wavelength
CCN(CC)c1ccc(/N=N/c2nc3sc(/N=N/c4ccc(OCCC(C)CC(C)(C)C)cc4)cc3s2)cc1 (stereo not drawn) [II-3] | 47
CCN(CC)c1ccc(/N=N/c2ccc(/N=N/c3nc4sc(CCC(C)C)cc4s3)cc2)cc1 [II-2] | 41
CCN(CC)c1ccc(/N=N/c2ccc(/N=N/c3nc4sc(CCC(C)CC(C)(C)C)cc4s3)cc2)cc1 (stereo not drawn) [II-1] | 42.4
CCN(CC)c1ccc(/N=N/c2ccc(/N=N/c3cc(C)ns3)cc2)cc1 [IV-4] | 41.4
CCCCSc1nnc(/N=N/c2ccc(/N=N/c3ccc(N(CC)CC)cc3)cc2)s1 [IV-2] | 44.0
CCN(CC)c1ccc(/N=N/c2ccc(/N=N/c3sc(C)cc3C#N)cc2)cc1 [IV-3] | 20.5
